PubChem BioAssay AID504467 (National Center for Advancing Translational Sciences (NCATS), 2011)
About 7,700 (2.3%) of roughly 330,000 compounds were called active. Inconclusive means that the source gave no clear call. Such entries were picked first, then a sample of the others. Calls follow the shape of the dose curve; as a rule, active = well fitted inhibition curve with a large enough effect; inconclusive = small, poorly fitted or top-dose-only effect, or effect the other way; inactive = flat fitted curve, though single readings scatter. Potencies beside an inconclusive call are fits to weak or partial responses and may not hold up.

assay: qHTS screen for small molecules that inhibit ELG1-dependent DNA repair in human embryonic kidney (HEK293T) cells expressing luciferase-tagged ELG1; settings: HEK293T ELG1-luciferase reporter, luminescence, 16 h, DNA damage induced by 5-fluorouridine; series mostly up to 46.1 µM; also: nearly all actives have a fitted effect of over 55% in size
Procedure, shortened: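 5-Fluorouridine DNA damage + compound/DMSO, 2,000 cells/well, 16 h, 37 °C/5% CO2. ONE-Glo, 30 min RT, luminescence. Readout = decrease in reporter signal.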
Potency is read from the fitted curve at half-maximal effect.

Structure (SMILES)	Potency
Cc1ccc(NC(=O)CCN2CCOCC2)cc1C	inactive
COCc1nnc(SCC(=O)NCc2ccccc2)n1-c1ccccc1	inactive
O=C(CSc1ncnc2c1oc1ccccc12)NCc1ccco1	inactive
COC(=O)c1ccc(COc2ccc(/C=N/NC(N)=S)cc2)o1	active: 14.6 µM
CCCN(Cc1ccccc1)C(=O)Nc1ccc2c(c1)nnn2C	inconclusive: 10 µM [activator, partial curve, poor fit]
O=C(Nc1ccc(N2CCCC2)c(Cl)c1)c1ccccc1[N+](=O)[O-]	inconclusive: 14.6 µM [activator, partial curve]
CCOc1ccc2c(=O)c(Oc3ccccc3OCC)coc2c1	inconclusive: 20.6 µM [activator, partial curve]
COC(=O)c1sccc1NC(=O)c1csc2c1CCCC2	inconclusive: 29.1 µM [activator, single point]
COc1ccccc1N1C(=O)C(Cl)=C(Nc2ccccc2O)C1=O	inactive
C=CCOc1ccc(/C=C2\C(=N)N3N=C(S(=O)(=O)CC)SC3=NC2=O)cc1OC	inactive
CCOc1cc(C(=O)OCC(=O)Nc2ccc(Cl)cn2)ccc1OCC(=O)N1CCOCC1	inconclusive: 18.4 µM [inhibitor, single point]
CC(=O)NC(Cc1ccc(O)cc1)C(=O)NN (stereo unspecified)	inconclusive: 20.6 µM [activator, partial curve, poor fit]
COc1ccc2[nH]c3c(c2c1)CCN1C(=O)C(CC(=O)NCCN2CCOCC2)C[C@H](C(=O)N(C(C)C)C(C)C)[C@@]31C (stereo partly specified)	inactive
O=C(c1[nH]ncc1-c1cccc(Br)c1)C1CO1 (stereo unspecified)	inconclusive: 29.1 µM [inhibitor, partial curve, poor fit]
Cc1ccc(C(=O)Nc2nc(-c3ccc(F)cc3)cs2)o1	inactive
O=C(Oc1ccccc1)c1cc2ccccc2oc1=O	inactive
CC(C)CCN1C(=O)c2ccc(C(=O)Nc3ccc(O)cc3C(=O)O)cc2C1=O	inactive
COc1c(Cl)cnn(-c2ccc(C)cc2)c1=O	inactive
CC(C)c1ccc(NC(=S)NN(c2ccccc2)c2ccccc2)cc1	inconclusive: 7.31 µM [activator, partial curve, poor fit]
N#Cc1ccncc1S(=O)c1ccc(Cl)cc1 (stereo unspecified)	inactive
COc1ccc(OCc2cc(C(=O)NC(C)Cc3ccccn3)no2)c(Cl)c1 (stereo unspecified)	inconclusive: 23.1 µM [activator, single point]
COc1ccc(NC(=O)C2COc3ccccc3O2)cc1 (stereo unspecified)	inconclusive: 8.2 µM [activator, partial curve]
CC1CCN(CC(C)OC(=O)c2ccc3c(c2)OCCO3)CC1 (stereo unspecified)	inconclusive: 23.1 µM [activator, single point]

Shown comma-delimited: 11 of the compounds above.
Structure (SMILES),Potency
O=C(CSc1ncnc2c1oc1ccccc12)NCc1ccco1,inactive
COC(=O)c1ccc(COc2ccc(/C=N/NC(N)=S)cc2)o1,active: 14.6 µM
CCCN(Cc1ccccc1)C(=O)Nc1ccc2c(c1)nnn2C,"inconclusive: 10 µM [activator, partial curve, poor fit]"
O=C(Nc1ccc(N2CCCC2)c(Cl)c1)c1ccccc1[N+](=O)[O-],"inconclusive: 14.6 µM [activator, partial curve]"
CCOc1ccc2c(=O)c(Oc3ccccc3OCC)coc2c1,"inconclusive: 20.6 µM [activator, partial curve]"
COC(=O)c1sccc1NC(=O)c1csc2c1CCCC2,"inconclusive: 29.1 µM [activator, single point]"
COc1ccccc1N1C(=O)C(Cl)=C(Nc2ccccc2O)C1=O,inactive
C=CCOc1ccc(/C=C2\C(=N)N3N=C(S(=O)(=O)CC)SC3=NC2=O)cc1OC,inactive
CCOc1cc(C(=O)OCC(=O)Nc2ccc(Cl)cn2)ccc1OCC(=O)N1CCOCC1,"inconclusive: 18.4 µM [inhibitor, single point]"
CC(=O)NC(Cc1ccc(O)cc1)C(=O)NN (stereo unspecified),"inconclusive: 20.6 µM [activator, partial curve, poor fit]"
COc1ccc2[nH]c3c(c2c1)CCN1C(=O)C(CC(=O)NCCN2CCOCC2)C[C@H](C(=O)N(C(C)C)C(C)C)[C@@]31C (stereo partly specified),inactive

Going on with the list:

Structure (SMILES)	Potency
Cc1nc2ccccc2nc1OCc1cccc(Cl)c1	inconclusive: 18.4 µM [activator, partial curve, poor fit]
CC(=O)c1ccccc1NC(=O)CCN1C(=O)C2CCCCC2C1=O (stereo unspecified)	inconclusive: 20.6 µM [activator, single point]
CCOc1ccc(NC(=S)Nc2cc(OC)c(Cl)cc2OC)cc1	inconclusive: 18.4 µM [inhibitor, single point]
COc1ccccc1NC(=O)c1cccc(S(=O)(=O)N2CCN(c3ccccc3)CC2)c1	inconclusive: 20.6 µM [inhibitor, partial curve, poor fit]
c1cc(CNc2ccc3c(c2)OCCO3)ccn1	inconclusive: 23.1 µM [activator, partial curve]
c1ccc(-c2cc(-c3ccc(N4CCOCC4)cc3)nc3ccccc23)cc1	inconclusive: 13 µM [activator, single point]
COc1cc(OC)c(C2=NOC(C(=O)NCc3cccnc3)C2)cc1Cl (stereo unspecified)	inactive
CCOc1ccc(NC(=O)Nc2cc(C)ccc2F)cc1	inconclusive: 8.2 µM [activator, partial curve]
C=C1/C=C(\C)C(C)(O)CC(O)CC(=O)C(O)C(O)C(C)CC(C)OC(=O)/C(C)=C/CC/C=C/C(OC)C(O)CC(C)C1 (stereo unspecified)	active: 14.6 µM
Cc1nc2ccc(NS(=O)(=O)c3c(F)cccc3F)cc2s1	inconclusive: 5.17 µM [inhibitor, partial curve, poor fit]
COc1ccc(NC(=O)Nc2ccc(F)cc2F)cc1	inconclusive: 5.8 µM [activator, full curve]
Cc1ccc(OCCNC(=O)c2cncc(Br)c2)cc1C	inactive
CN(c1cccc(NC(=O)COc2ccccc2)c1)S(C)(=O)=O	inconclusive: 9.2 µM [activator, partial curve]
O=C(NCc1cccc2ccccc12)c1cccs1	inconclusive: 16.4 µM [activator, partial curve]
CCOC(=O)c1c(-c2ccc(C)cc2)csc1NC(=O)CCSc1nnc2ccccn12	inconclusive: 14.6 µM [inhibitor, partial curve, poor fit]
CC(C)(C)c1ccc(C(=O)N2CCN(CCNC(=O)C(=O)NCc3ccc(Cl)cc3)CC2)cc1	active: 11.6 µM
Cc1ccc(C(=O)NCCc2ccccc2)cc1S(=O)(=O)N1CCOCC1	inconclusive: 20 µM [activator, partial curve]
COc1ccc(OCCC(=O)OCC(=O)Nc2cccc(Br)c2)cc1	inactive
COc1cc(OC)c2c(-c3cccc(-c4cccc(N)c4)c3)cc(=O)oc2c1	inconclusive: 13 µM [inhibitor, partial curve]
O=C(CSc1nnc(NC(=O)c2ccccc2F)s1)Nc1ccccc1F	inconclusive: 18.3 µM [activator, partial curve]
COc1cccc(Nc2nc(Nc3ccc(Cl)c(C(=O)O)c3)nc(C)c2[N+](=O)[O-])c1	inactive
Cc1ccc(-c2nc3ccccc3s2)cc1S(=O)(=O)N1CCCC1	inconclusive: 32.6 µM [inhibitor, single point]
CCOC(=O)/C=C/c1ccc2oc3ccccc3c(=O)c2c1	inconclusive: 5.8 µM [activator, partial curve]
